{
  "sequences": {"note": "Chains of the proteins cited; added tags and fusions are not shown. Lines headed by an entry give the natural chain unless they say otherwise; changes in a name come on top.", "UniProt P31749": "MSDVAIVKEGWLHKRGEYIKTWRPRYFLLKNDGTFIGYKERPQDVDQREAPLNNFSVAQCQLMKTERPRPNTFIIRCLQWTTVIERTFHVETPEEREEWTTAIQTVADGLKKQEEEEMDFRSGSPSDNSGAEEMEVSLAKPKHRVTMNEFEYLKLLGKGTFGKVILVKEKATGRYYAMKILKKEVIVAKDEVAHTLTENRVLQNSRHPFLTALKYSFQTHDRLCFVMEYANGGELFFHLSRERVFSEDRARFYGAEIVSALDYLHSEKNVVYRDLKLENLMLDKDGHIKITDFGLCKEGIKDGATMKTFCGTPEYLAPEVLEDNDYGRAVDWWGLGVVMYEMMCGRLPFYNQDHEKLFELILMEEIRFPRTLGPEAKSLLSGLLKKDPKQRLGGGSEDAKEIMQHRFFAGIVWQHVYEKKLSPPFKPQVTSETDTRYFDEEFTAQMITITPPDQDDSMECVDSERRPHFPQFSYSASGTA"},
  "source": "patent US8846681B2",
  "about": "“Pyrimidyl cyclopentanes as AKT protein kinase inhibitors” (Array BioPharma, Inc., priority 2006, dated 2014)",
  "note": "Counter-ions that a name gives are not always drawn. Some entries share one result that the patent states for a list of compounds.",
  "data": [
    {"target": "full-length human recombinant active AKT-1 (Homo sapiens, UniProt P31749)", "experiment": "AKT-1 Kinase Assay (IMAP fluorescence polarization)", "format": "biochemical", "details": "phosphorylation of fluorescently-labeled peptide (Crosstide), IMAP kit", "units": {"IC50": "µM"}, "values": [
      {"smiles": "CC(C)N1CCN(C[C@H](C(=O)N2CCN(c3ncnc4c3[C@H](C)C[C@@H]4F)CC2)c2ccc(Cl)cc2)CC1", "note": "[Example 115, (R)-2-(4-chlorophenyl)-1-(4-((5R,7S)-7-fluoro-5-methyl-6,7-dihydro-5H-cyclopenta[d]pyrimidin-4-yl)piperazin-1-yl)-3-(4-isopropylpiperazin-1-yl)propan-1-one]", "IC50": "< 10"},
      {"smiles": "C[C@@H]1CCc2ncnc(N3CCN(C(=O)C(CC(C)(C)N)c4ccc(Cl)cc4)CC3)c21", "note": "(mixture of isomers) [Example 30, (R,S)-4-amino-2-(4-chlorophenyl)-4-methyl-1-(4-((R)-5-methyl-6,7-dihydro-5H-cyclopenta[d]pyrimidin-4-yl)piperazin-1-yl)pentan-1-one dihydrochloride]", "IC50": "< 10"},
      {"smiles": "C[C@@H]1CCc2ncnc(N3CCN(C(=O)[C@H](N)Cc4ccc(I)cc4)CC3)c21", "note": "[Example 60, (R)-2-amino-3-(4-iodophenyl)-1-(4-((R)-5-methyl-6,7-dihydro-5H-cyclopenta[d]pyrimidin-4-yl)piperazin-1-yl)propan-1-one]", "IC50": "< 10"},
      {"smiles": "C[C@@H]1C[C@@H](F)c2ncnc(N3CCN(C(=O)[C@H](CNCC4CC4)c4ccc(Cl)c(Cl)c4)CC3)c21", "note": "[Example 131, (S)-3-(cyclopropylmethylamino)-2-(3,4-dichlorophenyl)-1-(4-((5R,7R)-7-fluoro-5-methyl-6,7-dihydro-5H-cyclopenta[d]pyrimidin-4-yl)piperazin-1-yl)propan-1-one]", "IC50": "< 10"},
      {"smiles": "C[C@@H]1C[C@@H](F)c2ncnc(N3CCN(C(=O)[C@H](CN4CCOCC4)c4ccc(Cl)cc4)CC3)c21", "note": "[Example 120, (S)-2-(4-chlorophenyl)-1-(4-((5R,7R)-7-fluoro-5-methyl-6,7-dihydro-5H-cyclopenta[d]pyrimidin-4-yl)piperazin-1-yl)-3-morpholinopropan-1-one]", "IC50": "< 10"},
      {"smiles": "C[C@@H]1C[C@H](F)c2ncnc(N3CCN(C(=O)[C@H](CN)c4ccc(Br)cc4)CC3)c21", "note": "[Example 124, (S)-3-amino-2-(4-bromophenyl)-1-(4-((5R,7S)-7-fluoro-5-methyl-6,7-dihydro-5H-cyclopenta[d]pyrimidin-4-yl)piperazin-1-yl)propan-1-one]", "IC50": "< 10"},
      {"smiles": "C[C@@H]1CCc2ncnc(N3CCN(C(=O)C(CN4CCC(F)(F)CC4)c4ccc(Cl)cc4)CC3)c21", "note": "(stereo partly drawn) [Example 49, 2-(4-chlorophenyl)-3-(4,4-difluoropiperidin-1-yl)-1-(4-((R)-5-methyl-6,7-dihydro-5H-cyclopenta[d]pyrimidin-4-yl)piperazin-1-yl)propan-1-one]", "IC50": "< 10"},
      {"smiles": "CCN(C)CC(C(=O)N1CCN(c2ncnc3c2[C@H](C)CC3)CC1)c1ccc(Cl)cc1", "note": "(stereo partly drawn) [Example 54, 2-(4-chlorophenyl)-3-(ethyl(methyl)amino)-1-(4-((R)-5-methyl-6,7-dihydro-5H-cyclopenta[d]pyrimidin-4-yl)piperazin-1-yl)propan-1-one]", "IC50": "< 10"},
      {"smiles": "C[C@@H]1C[C@@H](F)c2ncnc(N3CCN(C(=O)[C@H](CN4CCC(O)CC4)c4ccc(Cl)cc4)CC3)c21", "note": "[Example 113, (S)-2-(4-chlorophenyl)-1-(4-((5R,7R)-7-fluoro-5-methyl-6,7-dihydro-5H-cyclopenta[d]pyrimidin-4-yl)piperazin-1-yl)-3-(4-hydroxypiperidin-1-yl)propan-1-one]", "IC50": "< 10"},
      {"smiles": "C[C@@H]1CCc2ncnc(N3CCN(C(=O)[C@H](N)Cc4ccc(Cl)cc4)C[C@@H]3C)c21", "note": "[Example 2, (R)-2-amino-3-(4-chlorophenyl)-1-((S)-3-methyl-4-((R)-5-methyl-6,7-dihydro-5H-cyclopenta[d]pyrimidin-4-yl)piperazin-1-yl)propan-1-one dihydrochloride]", "IC50": "< 10"},
      {"smiles": "C[C@@H]1C[C@H](F)c2ncnc(N3CCN(C(=O)[C@H](CNC4CCOCC4)c4ccc(Br)c(F)c4)CC3)c21", "note": "[Example 146, (S)-2-(4-bromo-3-fluorophenyl)-1-(4-((5R,7S)-7-fluoro-5-methyl-6,7-dihydro-5H-cyclopenta[d]pyrimidin-4-yl)piperazin-1-yl)-3-(tetrahydro-2H-pyran-4-ylamino)propan-1-one]", "IC50": "< 10"},
      {"smiles": "C[C@@H]1CCc2ncnc(N3CCN(C(=O)[C@H](N)Cc4ccc(C(C)(C)C)cc4)CC3)c21", "note": "[Example 83, (R)-2-amino-3-(4-tert-butylphenyl)-1-(4-((R)-5-methyl-6,7-dihydro-5H-cyclopenta[d]pyrimidin-4-yl)piperazin-1-yl)propan-1-one]", "IC50": "< 10"},
      {"smiles": "CN[C@H](Cc1ccc(Cl)cc1)C(=O)N1CCN(c2ncnc3c2[C@H](C)CC3)[C@@H](C)C1", "note": "[Example 69, (R)-3-(4-chlorophenyl)-1-((S)-3-methyl-4-((R)-5-methyl-6,7-dihydro-5H-cyclopenta[d]pyrimidin-4-yl)piperazin-1-yl)-2-(methylamino)propan-1-one]", "IC50": "< 10"},
      {"smiles": "CC(=O)N1CCC(NC[C@@H](C(=O)N2CCN(c3ncnc4c3[C@H](C)C[C@H]4F)CC2)c2ccc(Cl)cc2)CC1", "note": "[Example 87, (S)-3-(1-acetylpiperidin-4-ylamino)-2-(4-chlorophenyl)-1-(4-((5R,7R)-7-fluoro-5-methyl-6,7-dihydro-5H-cyclopenta[d]pyrimidin-4-yl)piperazin-1-yl)propan-1-one]", "IC50": "< 10"},
      {"smiles": "C[C@@H]1C[C@@H](F)c2ncnc(N3CCN(C(=O)[C@H](CN)c4ccc(Cl)cc4)CC3)c21", "note": "[Example 99, (S)-3-amino-2-(4-chlorophenyl)-1-(4-((5R,7R)-7-fluoro-5-methyl-6,7-dihydro-5H-cyclopenta[d]pyrimidin-4-yl)piperazin-1-yl)propan-1-one]", "IC50": "< 10"},
      {"smiles": "C[C@@H]1CCc2ncnc(N3CCN(C(=O)[C@H](N)Cc4ccc(Br)cc4)CC3)c21", "note": "[Example 77, (R)-2-amino-3-(4-bromophenyl)-1-(4-((R)-5-methyl-6,7-dihydro-5H-cyclopenta[d]pyrimidin-4-yl)piperazin-1-yl)propan-1-one]", "IC50": "< 10"},
      {"smiles": "CCNCC(C(=O)N1CCN(c2ncnc3c2[C@H](C)CC3)CC1)c1ccc(F)cc1", "note": "(stereo partly drawn) [Example 28, (R,S)-3-(ethylamino)-2-(4-fluorophenyl)-1-(4-((R)-5-methyl-6,7-dihydro-5H-cyclopenta[d]pyrimidin-4-yl)piperazin-1-yl)propan-1-one dihydrochloride]", "IC50": "< 10"},
      {"smiles": "C[C@@H]1C[C@H](F)c2ncnc(N3CCN(C(=O)[C@H](CN4CCC(O)CC4)c4ccc(Cl)c(Cl)c4)CC3)c21", "note": "[Example 140, (S)-2-(3,4-dichlorophenyl)-1-(4-((5R,7S)-7-fluoro-5-methyl-6,7-dihydro-5H-cyclopenta[d]pyrimidin-4-yl)piperazin-1-yl)-3-(4-hydroxypiperidin-1-yl)propan-1-one]", "IC50": "< 10"},
      {"smiles": "C[C@@H]1C[C@@H](F)c2ncnc(N3CCN(C(=O)[C@@H](CN4CCN(CCO)CC4)c4ccc(Cl)cc4)CC3)c21", "note": "[Example 104, (R)-2-(4-chlorophenyl)-1-(4-((5R,7R)-7-fluoro-5-methyl-6,7-dihydro-5H-cyclopenta[d]pyrimidin-4-yl)piperazin-1-yl)-3-(4-(2-hydroxyethyl)piperazin-1-yl)propan-1-one]", "IC50": "< 10"},
      {"smiles": "C[C@@H]1CCc2ncnc(N3CCN(C(=O)C(C)(CCN)c4ccc(Cl)cc4)CC3)c21", "note": "(stereo partly drawn) [Example 19, (R,S)-4-amino-2-(4-chlorophenyl)-2-methyl-1-(4-((R)-5-methyl-6,7-dihydro-5H-cyclopenta[d]pyrimidin-4-yl)piperazin-1-yl)butan-1-one dihydrochloride]", "IC50": "< 10"},
      {"smiles": "CC(C)NCC(C(=O)N1CCN(c2ncnc3c2[C@H](C)CC3)CC1)c1ccc(F)c(F)c1", "note": "(stereo partly drawn) [Example 8, (R,S)-2-(3,4-difluorophenyl)-3-(isopropylamino)-1-(4-((R)-5-methyl-6,7-dihydro-5H-cyclopenta[d]pyrimidin-4-yl)piperazin-1-yl)propan-1-one dihydrochloride]", "IC50": "< 10"},
      {"smiles": "C[C@@H]1C[C@@H](F)c2ncnc(N3CCN(C(=O)[C@H](CNC4CCOCC4)c4ccc(Cl)cc4)CC3)c21", "note": "[Example 96, (S)-2-(4-chlorophenyl)-1-(4-((5R,7R)-7-fluoro-5-methyl-6,7-dihydro-5H-cyclopenta[d]pyrimidin-4-yl)piperazin-1-yl)-3-(tetrahydro-2H-pyran-4-ylamino)propan-1-one]", "IC50": "< 10"},
      {"smiles": "CC(C)NCC(C(=O)N1CCN(c2ncnc3c2[C@H](C)CC3)CC1)c1ccc(F)cc1", "note": "(stereo partly drawn) [Example 9, (R,S)-2-(4-fluorophenyl)-3-(isopropylamino)-1-(4-((R)-5-methyl-6,7-dihydro-5H-cyclopenta[d]pyrimidin-4-yl)piperazin-1-yl)propan-1-one dihydrochloride]", "IC50": "< 10"},
      {"smiles": "C[C@@H]1CCc2ncnc(N3CCN(C(=O)C(CN4CCC(O)CC4)c4ccc(Cl)cc4)CC3)c21", "note": "(stereo partly drawn) [Example 22, (R,S) 2-(4-chlorophenyl)-3-(4-hydroxypiperidin-1-yl)-1-(4-((R)-5-methyl-6,7-dihydro-5H-cyclopenta[d]pyrimidin-4-yl)piperazin-1-yl)propan-1-one dihydrochloride]", "IC50": "< 10"},
      {"smiles": "CC(C)N1CCN(C[C@@H](C(=O)N2CCN(c3ncnc4c3[C@H](C)C[C@@H]4F)CC2)c2ccc(Cl)c(Cl)c2)CC1", "note": "[Example 143, (S)-2-(3,4-dichlorophenyl)-1-(4-((5R,7S)-7-fluoro-5-methyl-6,7-dihydro-5H-cyclopenta[d]pyrimidin-4-yl)piperazin-1-yl)-3-(4-isopropylpiperazin-1-yl)propan-1-one]", "IC50": "< 10"},
      {"smiles": "C[C@@H]1CCc2ncnc(N3CCN(C(=O)[C@H](N)Cc4ccc(Cl)cc4Cl)C[C@@H]3C)c21", "note": "[Example 72, (R)-2-amino-3-(2,4-dichlorophenyl)-1-((S)-3-methyl-4-((R)-5-methyl-6,7-dihydro-5H-cyclopenta[d]pyrimidin-4-yl)piperazin-1-yl)propan-1-one]", "IC50": "< 10"},
      {"smiles": "C[C@@H]1CCc2ncnc(N3CCN(C(=O)[C@H](N)Cc4cccc(C(F)(F)F)c4)CC3)c21", "note": "[Example 84, (R)-2-amino-1-(4-((R)-5-methyl-6,7-dihydro-5H-cyclopenta[d]pyrimidin-4-yl)piperazin-1-yl)-3-(3-(trifluoromethyl)phenyl)propan-1-one]", "IC50": "< 10"}
    ]}
  ]
}
